Literature values as cited in paper PMC10354432, “Preparation of caffeic acid grafted chitosan self-assembled micelles to enhance oral bioavailability and antibacterial activity of quercetin” (Frontiers in Veterinary Science, 2023).
Converted amounts (≈) assume the structure as drawn. Like-named read-outs stand apart in the source and are kept apart here.

Conditions: cited from earlier work

O=c1c(O)c(-c2ccc(O)c(O)c2)oc2cc(O)cc(O)c12 [QR, Quercetin]
solubility in water (ref 11): 0.17 to 7.70 µg/mL
solubility in water (ref 12, 13): 7.7 µg/mL (≈ 25.5 µM)
